# Data from patent US20170226158A1.
# Results are given in words; binding and its absence hold for the method and conditions named. Sequences can lack the tags named with a protein.
# Target: CEA6
# Assay: phage ELISA on coated antigen
binder,measurement,value
"DARPin 1 (template L-Myc DARPin, net charge -13) (designed binder) DLGKKLLEAARAGQDDEVRILMANGADVNAMDQYGFTPLHLAAWYGHLEIVEVLLKHGADVNAKDVHGFTPLHLAAWTGHLEIVEVLLKNGADVNARDNEGSTPLHLAALAGHLEIVEVLLKNGADVNAQDKFGKTAFDISIDNGNEDLAEILQKL",binding,no binding
